This is an account of results in ChEMBL document CHEMBL4513141, “CO-ADD screening of NIH (USA) - Clinical Collection” (2021).

In the assay the test system is Escherichia coli. Particulars: Concentration 20 uM; ASSAY_TEST Inhibition of Bacterial Growth; detection method Absorption (OD600); MEDIA CAMHB; plate type 384well; NBS; CORNING #3640; time 18 hr.

This is a selection; strong and weak results do not stand in their true shares. Results with a measured potency or affinity are listed apart.

As usually defined, the Inhibition is how much of the control response was suppressed.

Turning to `COc1ccc2cc([C@H](C)C(=O)[O-])ccc2c1.[Na+]` [NAPROXEN SODIUM], the Inhibition is 5.74%.

`CC(C)(C(=O)O)c1ccc(C(O)CCCN2CCC(C(O)(c3ccccc3)c3ccccc3)CC2)cc1.Cl` (stereo not drawn) [FEXOFENADINE HYDROCHLORIDE]: the Inhibition turned out to be 1.44%. In the case of `Cc1cnc(C(=O)NCCc2ccc(S(=O)(=O)NC(=O)NC3CCCCC3)cc2)cn1` [GLIPIZIDE] it was 0.63%.
